No constants are given. Whether binding was seen depends on the method and setting. A result given as binding can be weak or reduced; the word gives no strength.
What was measured:
[1] = target: CD45 (Receptor type tyrosine-protein phosphatase C) on human PBMCs (human); test: figure legend of FIG. 20 (CD45 blocking, IFN-gamma secretion)
[2] = target: CD45 (Receptor type tyrosine-protein phosphatase C) on human PBMCs (human); test: blocking of CD45 on PBMCs; IFN-gamma ELISA read-out (FIG. 20)
[3] = target: CD45 (Receptor type tyrosine-protein phosphatase C) on human PBMCs (human); test: blocking of CD45 on PBMCs with anti-CD45 antibody or CD45 inhibitor VI; Western blot of phospho-Lck and phospho-ZAP70 (FIG. 17)

Measured: binding

CGHHLLRPRRRKRPHSIPTPILIFRSP [C24D]
binds: [1] | [2] | [3]
